No constants are given. Whether binding was seen depends on the method and setting. Binding seen in cells or lysates may run through a third protein. A yes stands for co-enrichment or nearness to the bait. Other partners may have been found.
Target: STimulator of INterferon Genes (STING) fused to GFP (UniProt Q86WV6)
Test: affinity purification with mass spectrometry; nuclear envelopes isolated from HEK293T cells expressing STING-GFP, reversibly cross-linked with ortho-phenanthroline copper, resuspended in RIPA and sonicated, immunoprecipitated with GFP antibodies on Protein A-sepharose, released with 50 mM DTT, tandem mass spectrometry; mock-transfected cells as control

The chains behind the UniProt entries cited, without tags or fusion partners.
UniProt Q86WV6: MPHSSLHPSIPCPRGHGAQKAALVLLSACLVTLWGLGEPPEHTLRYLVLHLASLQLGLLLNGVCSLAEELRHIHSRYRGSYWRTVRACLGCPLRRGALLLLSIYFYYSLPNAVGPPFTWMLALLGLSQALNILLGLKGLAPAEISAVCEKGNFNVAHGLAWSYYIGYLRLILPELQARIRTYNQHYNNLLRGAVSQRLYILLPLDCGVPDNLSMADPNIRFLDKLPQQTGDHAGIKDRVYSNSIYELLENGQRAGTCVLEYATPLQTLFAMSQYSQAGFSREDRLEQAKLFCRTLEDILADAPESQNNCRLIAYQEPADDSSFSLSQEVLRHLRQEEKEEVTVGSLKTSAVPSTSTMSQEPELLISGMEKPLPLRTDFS

B1: RRMJ3 (protein, UniProt Q8IY81 1-847)
chain: MGKKGKVGKSRRDKFYHLAKETGYRSRSAFKLIQLNRRFQFLQKARALLDLCAAPGGWLQVAAKFMPVSSLIVGVDLVPIKPLPNVVTLQQDITTERCRQALRKELKTWKVDVVLNDGAPNVGASWVHDAYSQAHLTLMALRLACDFLARGGSFITKVFRSRDYQPLLWIFQQLFRRVQATKPQASRHESAEIFVVCQGFLAPDKVDSKFFDPKFAFKEVEVQAKTVTELVTKKKPKAEGYAEGDLTLYHRTSVTDFLRAANPVDFLSKASEIMVDDEELAQHPATTEDIRVCCQDIRVLGRKELRSLLNWRTKLRRYVAKKLKEQAKALDISLSSGEEDEGDEEDSTAGTTKQPSKEEEEEEEEEQLNQTLAEMKAQEVAELKRKKKKLLREQRKQRERVELKMDLPGVSIADEGETGMFSLSTIRGHQLLEEVTQGDMSAADTFLSDLPRDDIYVSDVEDDGDDTSLDSDLDPEELAGVRGHQGLRDQKRMRLTEVQDDKEEEEEENPLLVPLEEKAVLQEEQANLWFSKGSFAGIEDDADEALEISQAQLLFENRRKGRQQQQKQQLPQTPPSCLKTEIMSPLYQDEAPKGTEASSGTEAATGLEGEEKDGISDSDSSTSSEEEESWEPLRGKKRSRGPKSDDDGFEIVPIEDPAKHRILDPEGLALGAVIASSKKAKRDLIDNSFNRYTFNEDEGELPEWFVQEEKQHRIRQLPVGKKEVEHYRKRWREINARPIKKVAEAKARKKRRMLKRLEQTRKKAEAVVNTVDISEREKVAQLRSLYKKAGLGKEKRHVTYVVAKKGVGRKVRRPAGVRGHFKVVDSRMKKDQRAQQRKEQKKKHKRK
  binding: binds

B2: SRSF2 (protein, UniProt Q01130 1-221)
chain: MSYGRPPPDVEGMTSLKVDNLTYRTSPDTLRRVFEKYGRVGDVYIPRDRYTKESRGFAFVRFHDKRDAEDAMDAMDGAVLDGRELRVQMARYGRPPDSHHSRRGPPPRRYGGGGYGRRSRSPRRRRRSRSRSRSRSRSRSRSRYSRSKSRSRTRSRSRSTSKSRSARRSKSKSSSVSRSRSRSRSRSRSRSPPPVSKRESKSRSRSKSPPKSPEEEGAVSS
  binding: binds

B3: DEK (protein, UniProt P35659 1-375)
chain: MSASAPAAEGEGTPTQPASEKEPEMPGPREESEEEEDEDDEEEEEEEKEKSLIVEGKREKKKVERLTMQVSSLQREPFTIAQGKGQKLCEIERIHFFLSKKKTDELRNLHKLLYNRPGTVSSLKKNVGQFSGFPFEKGSVQYKKKEEMLKKFRNAMLKSICEVLDLERSGVNSELVKRILNFLMHPKPSGKPLPKSKKTCSKGSKKERNSSGMARKAKRTKCPEILSDESSSDEDEKKNKEESSDDEDKESEEEPPKKTAKREKPKQKATSKSKKSVKSANVKKADSSTTKKNQNSSKKESESEDSSDDEPLIKKLKKPPTDEELKETIKKLLASANLEEVTMKQICKKVYENYPTYDLTERKDFIKTTVKELIS
  binding: binds

B4: CCDC86 (protein, UniProt Q9H6F5 1-360)
chain: MDTPLRRSRRLGGLRPESPESLTSVSRTRRALVEFESNPEETREPGSPPSVQRAGLGSPERPPKTSPGSPRLQQGAGLESPQGQPEPGAASPQRQQDLHLESPQRQPEYSPESPRCQPKPSEEAPKCSQDQGVLASELAQNKEELTPGAPQHQLPPVPGSPEPYPGQQAPGPEPSQPLLELTPRAPGSPRGQHEPSKPPPAGETVTGGFGAKKRKGSSSQAPASKKLNKEELPVIPKGKPKSGRVWKDRSKKRFSQMLQDKPLRTSWQRKMKERQERKLAKDFARHLEEEKERRRQEKKQRRAENLKRRLENERKAEVVQVIRNPAKLKRAKKKQLRSIEKRDTLALLQKQPPQQPAAKI
  binding: binds

B5: NOP2 (protein, UniProt P46087 1-812)
chain: MGRKLDPTKEKRGPGRKARKQKGAETELVRFLPAVSDENSKRLSSRARKRAAKRRLGSVEAPKTNKSPEAKPLPGKLPKGISAGAVQTAGKKGPQSLFNAPRGKKRPAPGSDEEEEEEDSEEDGMVNHGDLWGSEDDADTVDDYGADSNSEDEEEGEALLPIERAARKQKAREAAAGIQWSEEETEDEEEEKEVTPESGPPKVEEADGGLQINVDEEPFVLPPAGEMEQDAQAPDLQRVHKRIQDIVGILRDFGAQREEGRSRSEYLNRLKKDLAIYYSYGDFLLGKLMDLFPLSELVEFLEANEVPRPVTLRTNTLKTRRRDLAQALINRGVNLDPLGKWSKTGLVVYDSSVPIGATPEYLAGHYMLQGASSMLPVMALAPQEHERILDMCCAPGGKTSYMAQLMKNTGVILANDANAERLKSVVGNLHRLGVTNTIISHYDGRQFPKVVGGFDRVLLDAPCSGTGVISKDPAVKTNKDEKDILRCAHLQKELLLSAIDSVNATSKTGGYLVYCTCSITVEENEWVVDYALKKRNVRLVPTGLDFGQEGFTRFRERRFHPSLRSTRRFYPHTHNMDGFFIAKFKKFSNSIPQSQTGNSETATPTNVDLPQVIPKSENSSQPAKKAKGAAKTKQQLQKQQHPKKASFQKLNGISKGADSELSTVPSVTKTQASSSFQDSSQPAGKAEGIREPKVTGKLKQRSPKLQSSKKVAFLRQNAPPKGTDTQTPAVLSPSKTQATLKPKDHHQPLGRAKGVEKQQLPEQPFEKAAFQKQNDTPKGPQPPTVSPIRSSRPPPAKRKKSQSRGNSQLLLS
  binding: binds

B6: VRK1 (protein, UniProt Q99986 1-396)
chain: MPRVKAAQAGRQSSAKRHLAEQFAVGEIITDMAKKEWKVGLPIGQGGFGCIYLADMNSSESVGSDAPCVVKVEPSDNGPLFTELKFYQRAAKPEQIQKWIRTRKLKYLGVPKYWGSGLHDKNGKSYRFMIMDRFGSDLQKIYEANAKRFSRKTVLQLSLRILDILEYIHEHEYVHGDIKASNLLLNYKNPDQVYLVDYGLAYRYCPEGVHKEYKEDPKRCHDGTIEFTSIDAHNGVAPSRRGDLEILGYCMIQWLTGHLPWEDNLKDPKYVRDSKIRYRENIASLMDKCFPEKNKPGEIAKYMETVKLLDYTEKPLYENLRDILLQGLKAIGSKDDGKLDLSVVENGGLKAKTITKKRKKEIEESKEPGVEDTEWSNTQTEEAIQTRSRTRKRVQK
  binding: binds

B7: ILF3 (protein, UniProt Q12906 1-894)
chain: MRPMRIFVNDDRHVMAKHSSVYPTQEELEAVQNMVSHTERALKAVSDWIDEQEKGSSEQAESDNMDVPPEDDSKEGAGEQKTEHMTRTLRGVMRVGLVAKGLLLKGDLDLELVLLCKEKPTTALLDKVADNLAIQLAAVTEDKYEILQSVDDAAIVIKNTKEPPLSLTIHLTSPVVREEMEKVLAGETLSVNDPPDVLDRQKCLAALASLRHAKWFQARANGLKSCVIVIRVLRDLCTRVPTWGPLRGWPLELLCEKSIGTANRPMGAGEALRRVLECLASGIVMPDGSGIYDPCEKEATDAIGHLDRQQREDITQSAQHALRLAAFGQLHKVLGMDPLPSKMPKKPKNENPVDYTVQIPPSTTYAITPMKRPMEEDGEEKSPSKKKKKIQKKEEKAEPPQAMNALMRLNQLKPGLQYKLVSQTGPVHAPIFTMSVEVDGNSFEASGPSKKTAKLHVAVKVLQDMGLPTGAEGRDSSKGEDSAEETEAKPAVVAPAPVVEAVSTPSAAFPSDATAEQGPILTKHGKNPVMELNEKRRGLKYELISETGGSHDKRFVMEVEVDGQKFQGAGSNKKVAKAYAALAALEKLFPDTPLALDANKKKRAPVPVRGGPKFAAKPHNPGFGMGGPMHNEVPPPPNLRGRGRGGSIRGRGRGRGFGGANHGGYMNAGAGYGSYGYGGNSATAGYSQFYSNGGHSGNASGGGGGGGGGSSGYGSYYQGDNYNSPVPPKHAGKKQPHGGQQKPSYGSGYQSHQGQQQSYNQSPYSNYGPPQGKQKGYNHGQGSYSYSNSYNSPGGGGGSDYNYESKFNYSGSGGRSGGNSYGSGGASYNPGSHGGYGGGSGGGSSYQGKQGGYSQSNYNSPGSGQNYSGPPSSYQSSQGGYGRNADHSMNYQYR
  binding: binds

B8: KIF22 (protein, UniProt Q14807 1-665)
chain: MAAGGSTQQRRREMAAASAAAISGAGRCRLSKIGATRRPPPARVRVAVRLRPFVDGTAGASDPPCVRGMDSCSLEIANWRNHQETLKYQFDAFYGERSTQQDIYAGSVQPILRHLLEGQNASVLAYGPTGAGKTHTMLGSPEQPGVIPRALMDLLQLTREEGAEGRPWALSVTMSYLEIYQEKVLDLLDPASGDLVIREDCRGNILIPGLSQKPISSFADFERHFLPASRNRTVGATRLNQRSSRSHAVLLVKVDQRERLAPFRQREGKLYLIDLAGSEDNRRTGNKGLRLKESGAINTSLFVLGKVVDALNQGLPRVPYRDSKLTRLLQDSLGGSAHSILIANIAPERRFYLDTVSALNFAARSKEVINRPFTNESLQPHALGPVKLSQKELLGPPEAKRARGPEEEEIGSPEPMAAPASASQKLSPLQKLSSMDPAMLERLLSLDRLLASQGSQGAPLLSTPKRERMVLMKTVEEKDLEIERLKTKQKELEAKMLAQKAEEKENHCPTMLRPLSHRTVTGAKPLKKAVVMPLQLIQEQAASPNAEIHILKNKGRKRKLESLDALEPEEKAEDCWELQISPELLAHGRQKILDLLNEGSARDLRSLQRIGPKKAQLIVGWRELHGPFSQVEDLERVEGITGKQMESFLKANILGLAAGQRCGAS
  binding: binds

B9: NOP58 (protein, UniProt Q9Y2X3 1-529)
chain: MLVLFETSVGYAIFKVLNEKKLQEVDSLWKEFETPEKANKIVKLKHFEKFQDTAEALAAFTALMEGKINKQLKKVLKKIVKEAHEPLAVADAKLGGVIKEKLNLSCIHSPVVNELMRGIRSQMDGLIPGVEPREMAAMCLGLAHSLSRYRLKFSADKVDTMIVQAISLLDDLDKELNNYIMRCREWYGWHFPELGKIISDNLTYCKCLQKVGDRKNYASAKLSELLPEEVEAEVKAAAEISMGTEVSEEDICNILHLCTQVIEISEYRTQLYEYLQNRMMAIAPNVTVMVGELVGARLIAHAGSLLNLAKHAASTVQILGAEKALFRALKSRRDTPKYGLIYHASLVGQTSPKHKGKISRMLAAKTVLAIRYDAFGEDSSSAMGVENRAKLEARLRTLEDRGIRKISGTGKALAKTEKYEHKSEVKTYDPSGDSTLPTCSKKRKIEQVDKEDEITEKKAKKAKIKVKVEEEEEEKVAEEEETSVKKKKKRGKKKHIKEEPLSEEEPCTSTAIASPEKKKKKKKKRENED
  binding: binds

B10: UHRF1 (protein, UniProt Q96T88 1-793)
chain: MWIQVRTMDGRQTHTVDSLSRLTKVEELRRKIQELFHVEPGLQRLFYRGKQMEDGHTLFDYEVRLNDTIQLLVRQSLVLPHSTKERDSELSDTDSGCCLGQSESDKSSTHGEAAAETDSRPADEDMWDETELGLYKVNEYVDARDTNMGAWFEAQVVRVTRKAPSRDEPCSSTSRPALEEDVIYHVKYDDYPENGVVQMNSRDVRARARTIIKWQDLEVGQVVMLNYNPDNPKERGFWYDAEISRKRETRTARELYANVVLGDDSLNDCRIIFVDEVFKIERPGEGSPMVDNPMRRKSGPSCKHCKDDVNRLCRVCACHLCGGRQDPDKQLMCDECDMAFHIYCLDPPLSSVPSEDEWYCPECRNDASEVVLAGERLRESKKKAKMASATSSSQRDWGKGMACVGRTKECTIVPSNHYGPIPGIPVGTMWRFRVQVSESGVHRPHVAGIHGRSNDGAYSLVLAGGYEDDVDHGNFFTYTGSGGRDLSGNKRTAEQSCDQKLTNTNRALALNCFAPINDQEGAEAKDWRSGKPVRVVRNVKGGKNSKYAPAEGNRYDGIYKVVKYWPEKGKSGFLVWRYLLRRDDDEPGPWTKEGKDRIKKLGLTMQYPEGYLEALANREREKENSKREEEEQQEGGFASPRTGKGKWKRKSAGGGPSRAGSPRRTSKKTKVEPYSLTAQQSSLIREDKSNAKLWNEVLASLKDRPASGSPFQLFLSKVEETFQCICCQELVFRPITTVCQHNVCKDCLDRSFRAQVFSCPACRYDLGRSYAMQVNQPLQTVLNQLFPGYGNGR
  binding: binds

From PMC8436130
